Results: PMC12974444
No constants are given. Whether binding was seen depends on the method and setting. Binding seen in cells or lysates may run through a third protein. Some binding calls cover weakened binding; strength is not graded here. Where a sequence is shown, tags or fusion partners need not be part of it.

Molecular target: T1, endogenous FLAG-Strep-Med19 fusion (rat (endogenous in INS-1)) (UniProt D3ZAP1)
T1 sequence: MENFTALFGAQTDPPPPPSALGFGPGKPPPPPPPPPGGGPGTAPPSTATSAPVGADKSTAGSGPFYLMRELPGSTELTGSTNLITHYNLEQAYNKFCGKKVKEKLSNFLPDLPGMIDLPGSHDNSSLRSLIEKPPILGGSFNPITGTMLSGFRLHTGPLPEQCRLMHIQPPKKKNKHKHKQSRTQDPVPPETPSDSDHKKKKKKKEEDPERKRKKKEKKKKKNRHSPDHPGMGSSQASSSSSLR
Experiment: co-IP; FLAG immunoprecipitation of endogenous FLAG-Med19 from INS-1 extracts (Med14 WT and Med14 S983A Crispr knock-in lines; control, FSK, H-89, Ex-4, Semaglutide or Tirzepatide treatment), western blot of the immunoprecipitates

binding: binds
B1: Cdk8 (protein, UniProt A0A8I5ZVW8 1-507)
chain: MDYDFKVKLSSERERVEDLFEYEGCKVGRGTYGHVYKAKRKDGKDDKDYALKQIEGTGISMSACREIALLRELKHPNVISLQKVFLSHADRKVWLLFDYAEHDLWHIIKFHRASKANKKPVQLPRGMVKSLLYQILDGIHYLHANWVLHRDLKPANILVMGEGPERGRVKIADMGFARLFNSPLKPLADLDPVVVTFWYRAPELLLGARHYTKAIDIWAIGCIFAELLTSEPIFHCRQEDIKTSNPYHHDQLDRIFNVMGFPADKDWEDIKKMPEHSTLMKDFRRNTYTNCSLIKYMEKHKVKPDSKAFHLLQKLLTMDPIKRITSEQAMQDPYFLEDPLPTSDVFAGCQIPYPKREFLTEEEPDEKGDKKNQQQQQGNNHTNGTGHPGNQDSGHAQGPPLKKVRVVPPTTTSAFQSTCCLSQPWTKHITAPEQHGILSYLPAASTVLTSDTSVLSCAGVCPCTVAHAAGLAAALCGNLVWAMRMYCTTTSSQCPVAEFHSCHRSGR
